The source of these data is article doi:10.1101/2025.06.04.657812.

Numbering of substitutions follows the chain as printed. Construct, isoform or probe ends are uncertain for at least one entry. For some assays here: At least one verdict was read from the data and is not stated in words by the source. Where a protein sequence is shown, tags need not be part of it.

For one data set, the target named is T1, LSH_K254A (human) (UniProt Q9NRZ9).
T1 sequence (looked up): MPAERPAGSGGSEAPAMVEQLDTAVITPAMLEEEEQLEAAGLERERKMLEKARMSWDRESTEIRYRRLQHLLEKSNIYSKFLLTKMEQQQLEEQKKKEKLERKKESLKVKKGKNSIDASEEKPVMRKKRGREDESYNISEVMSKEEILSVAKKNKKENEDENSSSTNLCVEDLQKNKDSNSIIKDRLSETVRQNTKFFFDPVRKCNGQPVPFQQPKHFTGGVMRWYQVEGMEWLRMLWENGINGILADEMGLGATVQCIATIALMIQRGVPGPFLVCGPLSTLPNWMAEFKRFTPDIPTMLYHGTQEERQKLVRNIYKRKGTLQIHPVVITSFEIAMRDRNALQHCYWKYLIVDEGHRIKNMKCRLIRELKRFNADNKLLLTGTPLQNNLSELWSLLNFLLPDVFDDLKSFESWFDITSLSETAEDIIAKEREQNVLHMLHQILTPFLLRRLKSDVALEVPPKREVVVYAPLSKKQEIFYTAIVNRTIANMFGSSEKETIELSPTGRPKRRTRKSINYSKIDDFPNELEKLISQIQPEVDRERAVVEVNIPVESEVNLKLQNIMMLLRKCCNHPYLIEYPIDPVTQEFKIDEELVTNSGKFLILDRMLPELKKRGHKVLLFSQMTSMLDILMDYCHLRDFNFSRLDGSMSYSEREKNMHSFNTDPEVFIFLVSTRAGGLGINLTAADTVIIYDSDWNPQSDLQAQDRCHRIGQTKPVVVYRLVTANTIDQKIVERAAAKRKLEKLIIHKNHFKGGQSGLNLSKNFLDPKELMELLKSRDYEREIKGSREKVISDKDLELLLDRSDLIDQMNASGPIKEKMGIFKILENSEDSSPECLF
The experiment in a line: EMSA. The note with it: 0-20 uM LSH, residues 1-838.

A further data set deals with T2, LSH_WT (human) (UniProt Q9NRZ9).
T2 sequence (looked up): T1 sequence (looked up) with A254K
The experiment in a line: EMSA. The note with it: 0-20 uM LSH, residues 1-838.

For “CATTGCATATTTAAAACATGTTGGATCCCACGTTGCATGCTGATAGCCTACTAGAGCTGTATGAATTCAAATGACCTCTTATCAAGTGAC / GTCACTTGATAAGAGGTCATTTGAATTCATGGCTTAGAGCTTAATTGCTGAATCTGGTGCTGGGATCCAACATGTTTTAAATATGCAATG / GCACCAGAUUCAGCAAUUAAGCUCUAAGCC [R-loop without RNA overhang (DNA1/DNA2/RNA2)]”, the binding result in the data set with LSH_K254A (human) and in the data set with LSH_WT (human) was “binds” throughout.
Consider “CATTGCATATTTAAAACATGTTGGATCCCACGTTGCATGCTGATAGCCTACTAGAGCTGTATGAATTCAAATGACCTCTTATCAAGTGAC / GTCACTTGATAAGAGGTCATTTGAATTCATGGCTTAGAGCTTAATTGCTGAATCTGGTGCTGGGATCCAACATGTTTTAAATATGCAATG / GUGCUACGAUGCUAGUCGGGGAGUGCACCAGAUUCAGCAAUUAAGCUCUAAGCC [R-loop with 5'-RNA overhang (DNA1/DNA2/RNA1)]”, for which the binding result in the data set with LSH_K254A (human) and in the data set with LSH_WT (human) was “binds” each time.
For “GTCACTTGATAAGAGGTCATTTGAATTCATGGCTTAGAGCTTAATTGCTGAATCTGGTGCTGGGATCCAACATGTTTTAAATATGCAATG / GCACCAGAUUCAGCAAUUAAGCUCUAAGCC [RNA:DNA hybrid without RNA overhang (DNA2/RNA2)]”, the binding result with LSH_K254A (human) (DNA:RNA hybrid) and with LSH_WT (human) (DNA:RNA hybrid) was “binds” throughout.
Turning to “GTCACTTGATAAGAGGTCATTTGAATTCATGGCTTAGAGCTTAATTGCTGAATCTGGTGCTGGGATCCAACATGTTTTAAATATGCAATG / GUGCUACGAUGCUAGUCGGGGAGUGCACCAGAUUCAGCAAUUAAGCUCUAAGCC [RNA:DNA hybrid with 5'-RNA overhang (DNA2/RNA1)]”, the binding result in the data set with LSH_K254A (human) (DNA:RNA hybrid) and in the data set with LSH_WT (human) (DNA:RNA hybrid) was “binds” throughout.
